Measurements reported in PubChem BioAssay AID602196 (INSERM, 2012)

Assay: 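Genes whose knock-down alters cisplatin killing of lung cancer cells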
Cells: human A549 lung cancer cells
Reagents: siRNA pair against human genes
Duration: 48 h transfection before cisplatin; time from cisplatin to read-out not stated
Treatment: cisplatin at a dose killing half of control-siRNA cells; exact dose and duration not given
Measured: 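Shift in cisplatin death relative to control siRNA, from -50 (all cells die) to +50 (no cells die); siRNAs harmful on their own scored 0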
Direction: two-siRNA summed score (-2 to +2): higher = both siRNAs protect from cisplatin killing; -2 means both sensitise; mean protection from cisplatin (shift in death): higher = protection from cisplatin killing
Hit rule: 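Each siRNA scores 0 if harmful alone by LDH or WST-1, otherwise +1 if it reduces and -1 if it increases cisplatin killing; a gene is active when both siRNAs agree (sum +2 or -2)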
Calls: active = both siRNAs shift cisplatin killing the same way; inactive = no consistent shift, or siRNA harmful alone
The whole screen tested about 23,000 reagents; this is a random part of them. In the full data, 455 (2%) are marked active. 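Active includes both protection and sensitisation; some change values fall well beyond the stated -50 to +50 range.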 Unmarked entries are inactive. Reagents against one gene are numbered here. Not all columns of the deposit are shown. The record does not give: the amount of reagent.

no.	target gene	reagent	two-siRNA summed score (-2 to +2)	mean protection from cisplatin (shift in death) (%)
1	PRADC1 (protease associated domain containing 1)	1	0	4.5
2	NUTM1 (NUT midline carcinoma family member 1)	1	0	18.5
3	RNMT (RNA guanine-7 methyltransferase)	1	0	-9.7
4	LOC440536	1	1	10.1
5	LOC122335	1	1	6.7
6	TNFSF13 (TNF superfamily member 13)	1	1	17.2
7	LRIT2 (leucine rich repeat, Ig-like and transmembrane domains 2)	1	2 (active)	16.9
8	SMARCE1 (SWI/SNF related BAF chromatin remodeling complex subunit E1)	1	1	11.9
9	CDKN2D (cyclin dependent kinase inhibitor 2D)	1	-1	-11.7
10	TMCO6 (transmembrane and coiled-coil domains 6)	1	0	-4.9
11	TMEM65 (transmembrane protein 65)	1	0	-0.5
12	TMPRSS7 (transmembrane serine protease 7)	1	0	2.7
13	TPPP2 (tubulin polymerization promoting protein family member 2)	1	0	6.3
14	GRIA2 (glutamate ionotropic receptor AMPA type subunit 2)	1	0	-6.5
15	SMARCAD1 (SNF2 related chromatin remodeling ATPase with DExD box 1)	1	0	-4.9
16	LOC388722	1	0	13.5
17	TRNT1 (tRNA nucleotidyl transferase 1)	1	0	0.4
18	RPP25 (ribonuclease P/MRP subunit p25)	1	-1	-3.1
19	SHISA6 (shisa family member 6)	1	0	18.5
20	CREG2 (cellular repressor of E1A stimulated genes 2)	1	1	13.2
21	STX19 (syntaxin 19)	1	0	-5.2
22	LOC442407	1	0	3.2
23	MGC3196	1	0	13
24	HS3ST4 (heparan sulfate-glucosamine 3-sulfotransferase 4)	1	0	-6.7
25	DHH (desert hedgehog signaling molecule)	1	0	13.7
26	ING2-DT (ING2 divergent transcript)	1	1	20.2
27	REEP5 (receptor accessory protein 5)	1	1	10.9
28	GARIN1B (golgi associated RAB2 interactor 1B)	1	0	-1.2
29	MGAT4D (MGAT4 family member D)	1	0	10
30	ASPN (asporin)	1	0	-0.8
31	PLP2 (proteolipid protein 2)	1	0	-1.9
32	HMGB1 (high mobility group box 1)	1	0	3.5
33	MAP4K3 (mitogen-activated protein kinase kinase kinase kinase 3)	1	0	-0.8
34	DNTT (DNA nucleotidylexotransferase)	1	0	13.7
35	DNTT (DNA nucleotidylexotransferase)	2	0	16.2
36	LOC390913	1	2 (active)	19

Just “two-siRNA summed score (-2 to +2)”, for 7 of the entries above:
CDKN2D (cyclin dependent kinase inhibitor 2D) = -1
TMCO6 (transmembrane and coiled-coil domains 6) = 0
TMEM65 (transmembrane protein 65) = 0
TMPRSS7 (transmembrane serine protease 7) = 0
TPPP2 (tubulin polymerization promoting protein family member 2) = 0
GRIA2 (glutamate ionotropic receptor AMPA type subunit 2) = 0
SMARCAD1 (SNF2 related chromatin remodeling ATPase with DExD box 1) = 0

Next records:
no.	target gene	reagent	two-siRNA summed score (-2 to +2)	mean protection from cisplatin (shift in death) (%)
37	TFF2 (trefoil factor 2)	1	0	-6.5
38	EPHA3 (EPH receptor A3)	1	1	15.2
39	SSMEM1 (serine rich single-pass membrane protein 1)	1	1	17.1
40	WFDC1 (WAP four-disulfide core domain 1)	1	0	1
41	WDR73 (WD repeat domain 73)	1	0	-1.3
42	AP4S1 (adaptor related protein complex 4 subunit sigma 1)	1	1	4
43	PPP1R3F (protein phosphatase 1 regulatory subunit 3F)	1	0	6.7
44	LOC392275	1	0	17.1
45	EPS8 (EGFR pathway substrate 8, signaling adaptor)	1	0	0.3
46	AQP9 (aquaporin 9)	1	-1	-9.2
47	RAD52 (RAD52 DNA repair protein)	1	1	8.2
48	LOC255649	1	0	0.9
49	ARFGEF1 (ARF guanine nucleotide exchange factor 1)	1	1	15.8
50	ZNF517 (zinc finger protein 517)	1	0	-7.1
51	DNM1P31 (dynamin 1 pseudogene 31)	1	1	18.5
52	ABTB3 (ankyrin repeat and BTB domain containing 3)	1	0	-1.9
53	LOC149224	1	1	26.5
54	LOC440045	1	0	6.8
55	PRKRIP1 (PRKR interacting protein 1)	1	0	7.3
56	LRCH2	1	0	-1
57	LGALS13 (galectin 13)	1	0	5.3
